# Data taken from the supplement of paper PMC6411743.
# Sequences of proteins named here, by UniProt entry; tags and fusion partners are left off. A change or cut given only in a name is not applied to a line headed by its entry.
# UniProt Q9NYM9: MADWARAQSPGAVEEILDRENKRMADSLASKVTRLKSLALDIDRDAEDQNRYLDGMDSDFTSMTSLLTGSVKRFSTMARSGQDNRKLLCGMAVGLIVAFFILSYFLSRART
# UniProt P16885: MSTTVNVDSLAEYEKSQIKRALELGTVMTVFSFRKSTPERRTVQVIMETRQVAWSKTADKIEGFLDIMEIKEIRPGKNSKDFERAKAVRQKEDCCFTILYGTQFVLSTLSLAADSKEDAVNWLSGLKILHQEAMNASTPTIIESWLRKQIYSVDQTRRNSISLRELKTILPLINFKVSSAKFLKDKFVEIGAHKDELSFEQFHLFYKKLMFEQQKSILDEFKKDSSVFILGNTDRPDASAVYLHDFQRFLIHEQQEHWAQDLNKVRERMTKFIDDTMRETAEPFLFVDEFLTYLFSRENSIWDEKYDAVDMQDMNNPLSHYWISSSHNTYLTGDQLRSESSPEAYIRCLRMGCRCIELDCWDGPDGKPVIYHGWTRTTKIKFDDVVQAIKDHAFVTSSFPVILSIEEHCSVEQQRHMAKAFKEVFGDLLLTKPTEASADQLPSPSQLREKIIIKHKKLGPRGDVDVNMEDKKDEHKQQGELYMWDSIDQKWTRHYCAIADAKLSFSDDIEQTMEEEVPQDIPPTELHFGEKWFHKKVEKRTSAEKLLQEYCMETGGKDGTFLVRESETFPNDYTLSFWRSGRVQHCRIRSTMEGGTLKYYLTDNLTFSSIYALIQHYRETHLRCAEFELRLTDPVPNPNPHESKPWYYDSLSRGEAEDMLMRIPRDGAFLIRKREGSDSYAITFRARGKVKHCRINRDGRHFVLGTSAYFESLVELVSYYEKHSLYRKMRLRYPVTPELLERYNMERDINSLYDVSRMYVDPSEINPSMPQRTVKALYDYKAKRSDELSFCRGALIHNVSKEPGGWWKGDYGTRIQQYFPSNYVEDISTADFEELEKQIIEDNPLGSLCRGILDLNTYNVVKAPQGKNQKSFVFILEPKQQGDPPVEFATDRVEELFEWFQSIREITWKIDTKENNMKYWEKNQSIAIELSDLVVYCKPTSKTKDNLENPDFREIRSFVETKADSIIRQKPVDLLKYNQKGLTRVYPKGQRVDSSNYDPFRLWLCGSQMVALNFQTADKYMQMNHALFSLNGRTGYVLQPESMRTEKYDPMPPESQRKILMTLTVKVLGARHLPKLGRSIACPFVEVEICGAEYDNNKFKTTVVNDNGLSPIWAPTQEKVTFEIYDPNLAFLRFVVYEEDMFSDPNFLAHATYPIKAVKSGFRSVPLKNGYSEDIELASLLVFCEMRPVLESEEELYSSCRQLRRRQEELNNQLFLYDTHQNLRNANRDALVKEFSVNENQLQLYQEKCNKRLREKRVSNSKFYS
# UniProt Q12851: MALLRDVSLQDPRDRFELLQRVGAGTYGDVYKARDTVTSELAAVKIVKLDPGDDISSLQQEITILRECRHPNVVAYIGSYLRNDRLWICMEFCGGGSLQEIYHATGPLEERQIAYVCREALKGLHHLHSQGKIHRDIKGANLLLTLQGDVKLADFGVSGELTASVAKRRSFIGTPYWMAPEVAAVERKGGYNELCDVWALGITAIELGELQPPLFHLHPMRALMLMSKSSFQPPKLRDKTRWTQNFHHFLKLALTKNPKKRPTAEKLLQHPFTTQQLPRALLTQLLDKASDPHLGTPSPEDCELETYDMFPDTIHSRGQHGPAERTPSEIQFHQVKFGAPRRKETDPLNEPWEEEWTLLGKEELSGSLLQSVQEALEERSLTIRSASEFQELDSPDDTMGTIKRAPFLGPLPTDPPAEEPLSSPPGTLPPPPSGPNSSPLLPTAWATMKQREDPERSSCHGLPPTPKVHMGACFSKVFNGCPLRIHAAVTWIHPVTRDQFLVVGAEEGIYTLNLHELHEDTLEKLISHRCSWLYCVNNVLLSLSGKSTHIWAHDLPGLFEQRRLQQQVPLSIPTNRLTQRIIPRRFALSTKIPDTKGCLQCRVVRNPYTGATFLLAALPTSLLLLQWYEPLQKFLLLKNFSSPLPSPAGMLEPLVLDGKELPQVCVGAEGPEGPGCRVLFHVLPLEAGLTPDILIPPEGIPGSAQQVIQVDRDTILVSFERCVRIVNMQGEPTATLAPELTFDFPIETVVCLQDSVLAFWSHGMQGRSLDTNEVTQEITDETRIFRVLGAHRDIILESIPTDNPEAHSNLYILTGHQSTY
# UniProt O94880: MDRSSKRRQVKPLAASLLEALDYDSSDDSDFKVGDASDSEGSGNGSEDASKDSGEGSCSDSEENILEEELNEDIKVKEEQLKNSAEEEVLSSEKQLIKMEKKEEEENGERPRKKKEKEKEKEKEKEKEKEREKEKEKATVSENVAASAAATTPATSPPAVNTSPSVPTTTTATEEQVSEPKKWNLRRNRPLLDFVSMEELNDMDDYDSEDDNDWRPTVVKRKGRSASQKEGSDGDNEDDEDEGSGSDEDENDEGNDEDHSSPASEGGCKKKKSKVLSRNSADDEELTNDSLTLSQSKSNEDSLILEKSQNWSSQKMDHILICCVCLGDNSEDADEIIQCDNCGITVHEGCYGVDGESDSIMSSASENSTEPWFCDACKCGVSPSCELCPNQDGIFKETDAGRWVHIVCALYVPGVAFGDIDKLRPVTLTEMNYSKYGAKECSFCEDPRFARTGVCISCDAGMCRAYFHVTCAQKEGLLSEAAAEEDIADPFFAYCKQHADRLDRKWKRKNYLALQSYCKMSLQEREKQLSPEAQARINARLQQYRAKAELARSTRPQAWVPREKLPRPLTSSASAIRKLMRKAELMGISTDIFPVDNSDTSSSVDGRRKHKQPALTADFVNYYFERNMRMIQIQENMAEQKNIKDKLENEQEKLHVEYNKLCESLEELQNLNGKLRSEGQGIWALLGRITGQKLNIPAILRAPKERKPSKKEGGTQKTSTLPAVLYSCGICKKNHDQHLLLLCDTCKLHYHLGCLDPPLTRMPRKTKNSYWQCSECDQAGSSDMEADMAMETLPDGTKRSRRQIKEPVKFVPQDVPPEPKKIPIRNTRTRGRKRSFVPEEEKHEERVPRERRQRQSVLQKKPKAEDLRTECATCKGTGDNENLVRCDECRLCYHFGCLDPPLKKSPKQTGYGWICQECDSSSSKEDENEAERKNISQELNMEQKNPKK
# UniProt P57737: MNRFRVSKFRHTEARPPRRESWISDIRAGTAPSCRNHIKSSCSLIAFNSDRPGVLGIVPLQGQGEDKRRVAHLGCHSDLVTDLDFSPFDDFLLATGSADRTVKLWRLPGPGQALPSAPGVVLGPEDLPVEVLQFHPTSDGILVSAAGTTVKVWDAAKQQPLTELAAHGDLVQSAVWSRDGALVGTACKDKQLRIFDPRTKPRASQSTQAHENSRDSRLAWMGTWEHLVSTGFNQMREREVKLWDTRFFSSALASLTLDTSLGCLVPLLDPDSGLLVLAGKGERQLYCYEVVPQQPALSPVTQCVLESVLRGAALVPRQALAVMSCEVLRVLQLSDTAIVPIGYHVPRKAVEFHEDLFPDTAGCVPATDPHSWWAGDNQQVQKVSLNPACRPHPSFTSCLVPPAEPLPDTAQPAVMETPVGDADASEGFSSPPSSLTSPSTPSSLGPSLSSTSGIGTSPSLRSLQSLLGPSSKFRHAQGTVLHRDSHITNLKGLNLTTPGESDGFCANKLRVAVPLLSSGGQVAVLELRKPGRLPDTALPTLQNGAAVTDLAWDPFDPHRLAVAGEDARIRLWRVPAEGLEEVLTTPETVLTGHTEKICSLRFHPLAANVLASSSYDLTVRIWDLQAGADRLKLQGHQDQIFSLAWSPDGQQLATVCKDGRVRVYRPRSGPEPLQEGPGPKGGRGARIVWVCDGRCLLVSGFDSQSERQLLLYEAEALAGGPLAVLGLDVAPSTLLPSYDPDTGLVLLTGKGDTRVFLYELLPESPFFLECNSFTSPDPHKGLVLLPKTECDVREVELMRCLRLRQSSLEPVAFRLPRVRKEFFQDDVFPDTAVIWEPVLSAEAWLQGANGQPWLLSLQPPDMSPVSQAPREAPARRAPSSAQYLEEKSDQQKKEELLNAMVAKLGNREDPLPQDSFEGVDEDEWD
# ± gives the standard deviation of the averaged measurements. This is one part of the list.
# Compound: Nc1nc2c(ncn2[C@@H]2O[C@H](COP(=O)(O)OP(=O)(O)OP(=O)(O)O)[C@@H](O)[C@H]2O)c(=O)[nH]1 [guanosine triphosphate]
# Assay: NP40-soluble protein abundance relative to vehicle (solubility fold change) (ratio); higher = more soluble protein in presence of GTP
# Method: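 Solubility proteome profiling in Jurkat crude lysate. Lysate was treated with Mg-GTP (0.1-10 mM) for 10 min at room temperature and 3 min at 37 °C, then solubilised with 0.8% NP40 and benzonase, followed by ultracentrifugation. Proteins were quantified by TMT10 LC-MS/MS; the value is the NP40-soluble abundance relative to the NP40-processed vehicle, from 3 independent experiments.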
Target,NP40-soluble protein abundance (concentration: 0.1mM),NP40-soluble protein abundance (concentration: 0.5mM),NP40-soluble protein abundance (concentration: 1mM),NP40-soluble protein abundance (concentration: 2mM),NP40-soluble protein abundance (concentration: 4mM),NP40-soluble protein abundance (concentration: 6mM),NP40-soluble protein abundance (concentration: 8mM),NP40-soluble protein abundance (concentration: 10mM)
A0A0C4DH16|B8ZZS0 and related entries (UniProt Q9NYM9),0.849 ± 0.071,0.819 ± 0.096,1.03 ± 0.032,0.95 ± 0.053,0.965 ± 0.036,0.962 ± 0.083,0.888 ± 0.098,1.03 ± 0.048
A0A0A0MRF9|P16885 (UniProt P16885),1.05 ± 0.049,1.08 ± 0.091,0.934 ± 0.045,1 ± 0.099,0.963 ± 0.079,0.943 ± 0.07,0.892 ± 0.043,0.868 ± 0.049
A0A0A6YYA7|Q12851 and related entries (UniProt Q12851),0.975 ± 0.11,0.944 ± 0.11,0.851 ± 0.12,0.895 ± 0.08,0.888 ± 0.13,0.859 ± 0.11,0.828 ± 0.1,0.857 ± 0.061
A0A0U1RRH6|O94880 and related entries (UniProt O94880),1.05 ± 0.095,1.07 ± 0.14,1.15 ± 0.12,1.16 ± 0.065,1.34 ± 0.12,1.46 ± 0.096,1.65 ± 0.25,1.78 ± 0.25
A0A0A6YYL4|P57737-3|P57737 and related entries (UniProt P57737),1.01 ± 0.015,1.02 ± 0.038,0.952 ± 0.058,0.949 ± 0.03,0.95 ± 0.027,0.937 ± 0.048,0.927 ± 0.042,0.906 ± 0.058
